Experimental data from article doi:10.1101/2021.02.11.430699.
Residue numbers refer to the chain shown, from its start. Names may count otherwise. No constants are given. Whether binding was seen depends on the method and setting. For some of these results: Binding seen in cells or lysates may run through a third protein. Some results given as binding are weak or reduced against the parent protein; the word gives no strength. Where a sequence is shown, tags or fusion partners need not be part of it. Values belong to the binder of their own block, whether it stands above or below them.

Key:
[1] = molecular target: T1, MBP-Pol3-CTD, CysA + CysB (Pol3 991-1097) (S. cerevisiae) (UniProt P15436); assay: pull-down
T1 sequence: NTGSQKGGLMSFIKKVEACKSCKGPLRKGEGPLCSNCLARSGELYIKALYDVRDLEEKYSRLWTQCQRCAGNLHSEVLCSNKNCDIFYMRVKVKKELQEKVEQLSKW

[2] = molecular target: T2, Pol31 wild type, LexA bait fusion (S. cerevisiae) (UniProt P46957); assay: two-hybrid
T2 sequence: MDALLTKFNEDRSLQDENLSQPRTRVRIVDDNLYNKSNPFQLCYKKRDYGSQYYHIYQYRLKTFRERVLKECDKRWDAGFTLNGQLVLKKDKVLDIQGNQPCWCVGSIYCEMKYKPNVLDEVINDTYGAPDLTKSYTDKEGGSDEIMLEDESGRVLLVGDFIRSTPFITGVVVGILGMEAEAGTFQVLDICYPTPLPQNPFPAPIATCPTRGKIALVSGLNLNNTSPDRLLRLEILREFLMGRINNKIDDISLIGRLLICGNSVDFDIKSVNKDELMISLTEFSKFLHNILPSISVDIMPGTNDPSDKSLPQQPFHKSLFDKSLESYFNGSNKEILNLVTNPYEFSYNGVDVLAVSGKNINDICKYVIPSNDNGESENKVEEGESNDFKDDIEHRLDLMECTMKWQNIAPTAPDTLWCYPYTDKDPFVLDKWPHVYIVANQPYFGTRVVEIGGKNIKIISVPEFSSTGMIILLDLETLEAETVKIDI

[3] = molecular target: T3, Pol31-W417A, LexA bait fusion (S. cerevisiae) (UniProt P46957); assay: two-hybrid
T3 sequence: T2 sequence with W417A

binding [1]: binds
B1: HA-tagged Pol31 wild type (protein, UniProt P46957 1-487)
chain: T2 sequence

binding [1]: binds
B2: HA-tagged Pol31-W417A (protein, UniProt P46957 1-487)
chain: T2 sequence with W417A

binding [1]: binds
B3: HA-tagged Pol31-T415A (protein, UniProt P46957 1-487)
chain: T2 sequence with T415A

binding [2]: binds | binding [3]: binds
B4: Pol3 C-terminus (991-1097) with the paired CysA and CysB domains, B42 prey fusion (domain or fragment, UniProt P15436 991-1097)
chain: T1 sequence

binding [2]: binds | binding [3]: binds
B5: Pol3 CysB domain (1032-1097), B42 prey fusion (domain or fragment, UniProt P15436 1032-1097)
chain: GELYIKALYDVRDLEEKYSRLWTQCQRCAGNLHSEVLCSNKNCDIFYMRVKVKKELQEKVEQLSKW
